Data published in patent US11591243B2, “Industrial process and system for the inactivation of liquid waste” (CRISTALIA PRODUTOS QUIMICOS FARMACEUTICOS LTDA., priority 2018, dated 2023).
For at least one compound, name, drawing or mass did not settle the structure. Some compounds share one wording; it may come from a single statement.

Test: Inactivation kinetics by HPLC of high potency APIs with chemical agents
Format: physicochemical
Conditions: chemical agents and analytical methods appropriate for each API; different exposure time; HPLC (FIG. 4)
Description: The inactivation kinetics by HPLC of high potency APIs bortezomib, decitabine, sunitinib malate, temozolomide and zoledronic acid was evaluated using chemical agents and analytical methods appropriate for each API.

Inactivation by chemical agent action, completely inactivated:
Nc1ncn([C@H]2C[C@H](O)[C@@H](CO)O2)c(=O)n1 [decitabine]
O=P(O)(O)C(O)(Cn1ccnc1)P(=O)(O)O [zoledronic acid]
Cn1nnc2c(C(N)=O)ncn2c1=O [temozolomide]
